Source: the supplement of paper PMC6411743
± gives the standard deviation of the averaged measurements. Only a part is listed here, and it is no random draw.

Chains of the proteins cited; added tags and fusions are not shown. Lines headed by an entry give the natural chain unless they say otherwise; changes in a name come on top.
UniProt Q8TAF3: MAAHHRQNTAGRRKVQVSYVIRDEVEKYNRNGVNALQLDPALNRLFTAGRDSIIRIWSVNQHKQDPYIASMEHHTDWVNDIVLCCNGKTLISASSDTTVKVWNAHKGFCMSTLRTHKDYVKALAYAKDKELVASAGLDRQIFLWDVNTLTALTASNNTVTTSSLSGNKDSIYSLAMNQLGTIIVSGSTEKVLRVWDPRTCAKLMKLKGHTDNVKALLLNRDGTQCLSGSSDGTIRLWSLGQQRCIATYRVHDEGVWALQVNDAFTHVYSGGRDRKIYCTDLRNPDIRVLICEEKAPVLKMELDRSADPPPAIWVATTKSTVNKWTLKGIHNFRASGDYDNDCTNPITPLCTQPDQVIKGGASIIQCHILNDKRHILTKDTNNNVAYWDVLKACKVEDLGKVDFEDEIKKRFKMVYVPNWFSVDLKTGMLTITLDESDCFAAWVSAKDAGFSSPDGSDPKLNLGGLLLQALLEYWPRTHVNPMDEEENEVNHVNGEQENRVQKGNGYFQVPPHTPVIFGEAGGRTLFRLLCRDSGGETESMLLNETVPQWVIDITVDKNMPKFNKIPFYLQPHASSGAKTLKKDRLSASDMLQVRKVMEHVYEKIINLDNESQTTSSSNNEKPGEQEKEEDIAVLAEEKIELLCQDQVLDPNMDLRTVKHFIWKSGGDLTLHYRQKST
UniProt Q8NE01: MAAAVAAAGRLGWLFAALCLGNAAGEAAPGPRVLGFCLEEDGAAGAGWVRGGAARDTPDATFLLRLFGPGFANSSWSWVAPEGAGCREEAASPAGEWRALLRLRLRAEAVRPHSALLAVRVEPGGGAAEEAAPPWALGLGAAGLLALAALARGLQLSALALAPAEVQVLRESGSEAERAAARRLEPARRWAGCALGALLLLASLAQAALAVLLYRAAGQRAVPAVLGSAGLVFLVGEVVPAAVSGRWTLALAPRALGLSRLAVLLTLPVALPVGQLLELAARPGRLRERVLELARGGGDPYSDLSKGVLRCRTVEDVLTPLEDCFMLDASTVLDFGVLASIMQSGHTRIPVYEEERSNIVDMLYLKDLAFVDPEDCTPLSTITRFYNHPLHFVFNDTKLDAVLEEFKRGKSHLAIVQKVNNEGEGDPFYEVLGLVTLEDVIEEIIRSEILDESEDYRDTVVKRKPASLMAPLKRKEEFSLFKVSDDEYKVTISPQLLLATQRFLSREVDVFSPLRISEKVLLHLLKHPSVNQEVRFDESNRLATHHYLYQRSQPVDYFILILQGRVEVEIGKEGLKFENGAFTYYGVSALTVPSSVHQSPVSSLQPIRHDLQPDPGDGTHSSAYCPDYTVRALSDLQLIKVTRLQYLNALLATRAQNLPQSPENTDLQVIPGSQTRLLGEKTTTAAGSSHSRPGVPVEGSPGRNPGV
UniProt Q8NBU5: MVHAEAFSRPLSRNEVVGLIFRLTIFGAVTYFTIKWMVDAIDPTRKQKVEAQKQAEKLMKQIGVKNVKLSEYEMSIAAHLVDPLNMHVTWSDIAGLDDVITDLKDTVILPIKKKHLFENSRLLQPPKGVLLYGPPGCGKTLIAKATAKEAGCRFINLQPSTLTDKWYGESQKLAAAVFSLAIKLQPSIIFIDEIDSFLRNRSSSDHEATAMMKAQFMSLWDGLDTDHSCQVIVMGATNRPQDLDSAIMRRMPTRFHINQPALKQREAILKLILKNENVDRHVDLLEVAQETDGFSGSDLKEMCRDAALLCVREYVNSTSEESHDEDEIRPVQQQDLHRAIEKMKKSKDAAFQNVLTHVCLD
UniProt Q8NEZ2: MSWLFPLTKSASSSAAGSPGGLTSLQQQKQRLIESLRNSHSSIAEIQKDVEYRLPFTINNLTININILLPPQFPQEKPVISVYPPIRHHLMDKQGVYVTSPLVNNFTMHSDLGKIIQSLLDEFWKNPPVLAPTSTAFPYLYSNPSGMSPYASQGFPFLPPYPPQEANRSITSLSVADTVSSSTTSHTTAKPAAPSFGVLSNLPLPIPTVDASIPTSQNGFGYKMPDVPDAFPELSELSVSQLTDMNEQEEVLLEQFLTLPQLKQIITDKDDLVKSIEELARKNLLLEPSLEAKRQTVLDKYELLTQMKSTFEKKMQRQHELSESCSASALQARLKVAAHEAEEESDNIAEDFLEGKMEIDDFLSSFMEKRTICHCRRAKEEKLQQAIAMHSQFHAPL
UniProt Q8TAP6: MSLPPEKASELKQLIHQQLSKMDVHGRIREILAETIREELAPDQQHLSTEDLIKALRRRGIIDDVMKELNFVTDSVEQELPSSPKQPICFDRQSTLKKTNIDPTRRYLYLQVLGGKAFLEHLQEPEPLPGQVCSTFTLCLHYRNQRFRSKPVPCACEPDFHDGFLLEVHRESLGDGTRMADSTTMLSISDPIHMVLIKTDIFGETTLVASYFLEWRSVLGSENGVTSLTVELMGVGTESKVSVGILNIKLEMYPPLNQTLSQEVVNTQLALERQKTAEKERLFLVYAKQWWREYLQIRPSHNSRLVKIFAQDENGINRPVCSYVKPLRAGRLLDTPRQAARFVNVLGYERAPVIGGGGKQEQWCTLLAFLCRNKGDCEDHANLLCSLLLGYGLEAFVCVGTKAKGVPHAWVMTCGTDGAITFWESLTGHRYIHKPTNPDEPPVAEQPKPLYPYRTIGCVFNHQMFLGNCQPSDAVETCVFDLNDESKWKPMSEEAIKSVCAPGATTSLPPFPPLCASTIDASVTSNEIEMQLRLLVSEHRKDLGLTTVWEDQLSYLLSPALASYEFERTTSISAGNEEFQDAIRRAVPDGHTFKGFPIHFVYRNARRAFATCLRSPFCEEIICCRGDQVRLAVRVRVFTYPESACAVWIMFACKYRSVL
UniProt Q8TAP9: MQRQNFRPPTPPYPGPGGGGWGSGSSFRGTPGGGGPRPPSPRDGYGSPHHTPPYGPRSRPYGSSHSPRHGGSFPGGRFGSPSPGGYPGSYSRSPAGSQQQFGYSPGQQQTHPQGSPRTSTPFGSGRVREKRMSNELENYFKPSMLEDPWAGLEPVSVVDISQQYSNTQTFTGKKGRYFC
UniProt Q8IVD9: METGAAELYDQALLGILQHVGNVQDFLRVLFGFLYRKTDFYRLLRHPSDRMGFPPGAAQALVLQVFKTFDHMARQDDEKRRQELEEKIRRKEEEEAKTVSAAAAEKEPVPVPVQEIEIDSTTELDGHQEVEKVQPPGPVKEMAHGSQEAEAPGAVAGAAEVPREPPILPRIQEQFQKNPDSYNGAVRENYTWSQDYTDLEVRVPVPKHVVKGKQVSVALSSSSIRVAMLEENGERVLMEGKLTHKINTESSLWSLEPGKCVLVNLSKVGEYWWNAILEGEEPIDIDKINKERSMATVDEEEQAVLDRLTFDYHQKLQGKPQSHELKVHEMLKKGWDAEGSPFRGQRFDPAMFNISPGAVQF
UniProt Q8N8A2: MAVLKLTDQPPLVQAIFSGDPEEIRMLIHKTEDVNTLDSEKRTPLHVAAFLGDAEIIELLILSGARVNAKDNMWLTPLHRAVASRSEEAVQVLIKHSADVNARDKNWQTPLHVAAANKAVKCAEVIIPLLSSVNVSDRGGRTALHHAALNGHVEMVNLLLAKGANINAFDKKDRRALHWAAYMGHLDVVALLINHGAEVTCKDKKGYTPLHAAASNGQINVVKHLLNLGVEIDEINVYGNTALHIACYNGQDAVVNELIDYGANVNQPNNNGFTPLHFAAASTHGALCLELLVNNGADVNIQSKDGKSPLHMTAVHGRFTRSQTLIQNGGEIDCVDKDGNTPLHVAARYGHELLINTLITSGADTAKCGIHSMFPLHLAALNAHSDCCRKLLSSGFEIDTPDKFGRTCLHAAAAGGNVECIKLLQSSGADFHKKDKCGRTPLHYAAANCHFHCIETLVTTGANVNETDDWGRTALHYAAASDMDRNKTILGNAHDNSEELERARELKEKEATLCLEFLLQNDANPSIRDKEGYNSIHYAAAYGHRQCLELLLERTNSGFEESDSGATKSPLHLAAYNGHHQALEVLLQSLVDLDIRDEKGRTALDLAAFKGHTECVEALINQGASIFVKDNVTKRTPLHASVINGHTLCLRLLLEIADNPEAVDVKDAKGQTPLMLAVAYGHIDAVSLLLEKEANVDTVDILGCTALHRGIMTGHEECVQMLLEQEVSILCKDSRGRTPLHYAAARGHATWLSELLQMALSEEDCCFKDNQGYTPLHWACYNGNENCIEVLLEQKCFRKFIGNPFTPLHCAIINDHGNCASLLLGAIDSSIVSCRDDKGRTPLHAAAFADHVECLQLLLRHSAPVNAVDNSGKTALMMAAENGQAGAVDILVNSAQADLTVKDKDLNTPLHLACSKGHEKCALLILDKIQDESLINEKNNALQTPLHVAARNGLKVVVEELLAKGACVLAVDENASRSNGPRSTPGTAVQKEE
UniProt Q8NI37: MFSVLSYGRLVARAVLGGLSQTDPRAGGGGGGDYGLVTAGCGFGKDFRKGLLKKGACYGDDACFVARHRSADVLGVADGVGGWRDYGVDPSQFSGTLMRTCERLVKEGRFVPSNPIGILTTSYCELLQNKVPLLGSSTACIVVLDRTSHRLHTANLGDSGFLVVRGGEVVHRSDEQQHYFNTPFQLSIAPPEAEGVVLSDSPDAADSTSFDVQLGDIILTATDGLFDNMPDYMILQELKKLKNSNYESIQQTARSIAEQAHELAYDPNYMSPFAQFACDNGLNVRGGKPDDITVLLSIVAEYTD
UniProt Q8N9V3: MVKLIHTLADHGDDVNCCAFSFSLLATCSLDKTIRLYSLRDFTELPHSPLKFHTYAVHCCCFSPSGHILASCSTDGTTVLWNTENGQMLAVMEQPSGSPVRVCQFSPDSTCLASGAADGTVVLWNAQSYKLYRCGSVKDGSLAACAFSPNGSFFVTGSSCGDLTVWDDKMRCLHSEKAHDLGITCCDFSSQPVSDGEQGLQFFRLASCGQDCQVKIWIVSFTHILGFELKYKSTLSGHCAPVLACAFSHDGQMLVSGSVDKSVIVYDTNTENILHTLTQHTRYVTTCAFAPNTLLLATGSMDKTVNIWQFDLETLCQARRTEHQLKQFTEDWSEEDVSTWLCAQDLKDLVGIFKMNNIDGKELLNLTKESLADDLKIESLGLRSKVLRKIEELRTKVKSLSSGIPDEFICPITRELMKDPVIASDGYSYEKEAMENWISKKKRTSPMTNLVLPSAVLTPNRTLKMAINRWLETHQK
UniProt Q8NC51: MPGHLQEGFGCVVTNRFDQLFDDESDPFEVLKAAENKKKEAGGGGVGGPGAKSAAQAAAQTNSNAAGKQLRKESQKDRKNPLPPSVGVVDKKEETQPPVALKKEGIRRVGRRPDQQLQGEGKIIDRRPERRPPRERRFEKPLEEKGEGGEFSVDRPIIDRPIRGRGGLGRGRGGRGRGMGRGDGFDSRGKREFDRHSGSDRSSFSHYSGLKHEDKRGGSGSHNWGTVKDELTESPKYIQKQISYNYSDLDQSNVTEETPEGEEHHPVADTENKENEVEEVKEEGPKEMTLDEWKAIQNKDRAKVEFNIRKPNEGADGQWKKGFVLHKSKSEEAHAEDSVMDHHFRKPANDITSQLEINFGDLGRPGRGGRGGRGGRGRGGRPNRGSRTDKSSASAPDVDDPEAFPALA
UniProt Q8IY63: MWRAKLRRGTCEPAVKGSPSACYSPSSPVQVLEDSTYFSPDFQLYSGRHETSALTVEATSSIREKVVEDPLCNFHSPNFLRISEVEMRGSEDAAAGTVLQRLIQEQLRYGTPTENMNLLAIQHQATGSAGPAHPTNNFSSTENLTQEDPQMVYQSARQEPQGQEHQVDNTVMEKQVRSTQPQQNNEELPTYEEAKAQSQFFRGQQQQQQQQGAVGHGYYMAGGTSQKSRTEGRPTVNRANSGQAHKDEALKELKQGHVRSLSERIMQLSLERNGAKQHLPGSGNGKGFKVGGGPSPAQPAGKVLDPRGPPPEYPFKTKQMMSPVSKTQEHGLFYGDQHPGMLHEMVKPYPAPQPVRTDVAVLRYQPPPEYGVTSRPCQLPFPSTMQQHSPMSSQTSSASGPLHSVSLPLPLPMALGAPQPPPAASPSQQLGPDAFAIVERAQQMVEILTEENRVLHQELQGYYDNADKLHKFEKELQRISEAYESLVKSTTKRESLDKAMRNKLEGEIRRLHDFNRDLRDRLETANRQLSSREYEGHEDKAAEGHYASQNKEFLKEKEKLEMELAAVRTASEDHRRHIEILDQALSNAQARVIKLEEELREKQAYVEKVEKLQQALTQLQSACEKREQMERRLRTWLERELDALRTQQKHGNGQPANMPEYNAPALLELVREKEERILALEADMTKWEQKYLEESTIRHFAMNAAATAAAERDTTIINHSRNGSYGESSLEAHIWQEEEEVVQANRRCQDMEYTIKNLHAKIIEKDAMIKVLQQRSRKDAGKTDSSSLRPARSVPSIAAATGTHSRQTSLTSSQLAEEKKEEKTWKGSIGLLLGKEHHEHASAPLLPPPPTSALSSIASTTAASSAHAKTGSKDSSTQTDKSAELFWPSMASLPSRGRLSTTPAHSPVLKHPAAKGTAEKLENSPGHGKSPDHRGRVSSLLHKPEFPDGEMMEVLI

Compound: Nc1ncnc2c1ncn2[C@@H]1O[C@H](COP(=O)(O)OP(=O)(O)OP(=O)(O)O)[C@@H](O)[C@H]1O [adenosine triphosphate]
Experiment: NP40-soluble protein abundance relative to vehicle (solubility fold change) (ratio); higher = more soluble protein in presence of ATP
Summary of the method: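 Data come from three independent experiments in which Dounce-homogenised Jurkat crude lysate was treated at eight concentrations from 0.1 to 10 mM. Treatment ran 10 min at room temperature and then 3 min at 37 °C, after which 0.8% NP40 and benzonase were added for 60 min at 4 °C before ultracentrifugation. The supernatant underwent TMT labelling and LC-MS/MS, and vsn-normalised intensities were expressed as fold change against the detergent-processed vehicle in each replicate.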

Target	NP40-soluble protein abundance (concentration: 1mM)	NP40-soluble protein abundance (concentration: 2mM)	NP40-soluble protein abundance (concentration: 4mM)	NP40-soluble protein abundance (concentration: 6mM)	NP40-soluble protein abundance (concentration: 8mM)	NP40-soluble protein abundance (concentration: 10mM)
UniProt Q8N1G2	1.03 ± 0.092	1.02 ± 0.057	1.02 ± 0.038	0.975 ± 0.089	1.04 ± 0.033	1.02 ± 0.033
PAF1 (UniProt Q8N7H5)	1.01 ± 0.035	0.992 ± 0.036	0.957 ± 0.014	0.956 ± 0.039	0.84 ± 0.04	0.742 ± 0.044
UniProt Q8N5A5-2|Q8N5A5 and related entries	1.08 ± 0.11	1.05 ± 0.088	1.08 ± 0.081	1.14 ± 0.13	1.1 ± 0.1	1.15 ± 0.096
EHBP1L1 (UniProt Q8N3D4)	0.998 ± 0.078	1.01 ± 0.14	1.02 ± 0.083	1.04 ± 0.14	0.988 ± 0.048	0.975 ± 0.026
UniProt Q8N5N7 and related entries	1.09 ± 0.23	0.96 ± 0.16	1.03 ± 0.24	1 ± 0.47	1.04 ± 0.33	0.889 ± 0.23
UniProt Q8N4C8 and related entries	0.956 ± 0.067	0.97 ± 0.085	0.996 ± 0.081	1.04 ± 0.097	0.978 ± 0.072	0.983 ± 0.086
WDR48 (UniProt Q8TAF3)	1.06 ± 0.078	1.03 ± 0.067	1.02 ± 0.047	1.01 ± 0.064	1.07 ± 0.025	1.08 ± 0.051
GUF1 (UniProt Q8N442)	1.09 ± 0.15	1.09 ± 0.015	1.11 ± 0.13	1.17 ± 0.097	1.13 ± 0.056	1.2 ± 0.066
Q8N655 (UniProt Q96JN0)	1.11 ± 0.12	1.15 ± 0.21	1.28 ± 0.11	1.24 ± 0.23	1.27 ± 0.22	1.36 ± 0.24
CMIP (UniProt Q8IY22)	0.991 ± 0.12	1.03 ± 0.074	1.01 ± 0.12	1.05 ± 0.077	1.04 ± 0.067	1.01 ± 0.075
CNNM3 (UniProt Q8NE01)	1.01 ± 0.095	0.986 ± 0.11	1 ± 0.1	0.942 ± 0.1	1.01 ± 0.06	0.979 ± 0.087
GADD45GIP1 (UniProt Q8TAE8)	1.05 ± 0.13	0.894 ± 0.064	0.923 ± 0.14	0.908 ± 0.19	0.938 ± 0.12	0.813 ± 0.21
UniProt Q8ND82 and related entries	1 ± 0.081	0.9769 ± 0.0073	1.03 ± 0.086	1 ± 0.077	0.936 ± 0.04	0.987 ± 0.064
LPCAT1 (UniProt Q8NF37)	1.03 ± 0.072	1.04 ± 0.058	1.01 ± 0.017	1.01 ± 0.047	1.03 ± 0.05	1.04 ± 0.036
HSCB (UniProt Q8IWL3)	0.908 ± 0.094	0.935 ± 0.031	0.993 ± 0.14	0.858 ± 0.052	1.01 ± 0.024	0.957 ± 0.11
UniProt Q8IXQ6-2|Q8IXQ6-3	1.08 ± 0.041	1.09 ± 0.015	1.09 ± 0.048	1.1 ± 0.05	1.149 ± 0.0082	1.136 ± 0.0097
RYBP (UniProt Q8N488)	1.03 ± 0.094	1.03 ± 0.052	1.05 ± 0.061	1.081 ± 0.0025	0.985 ± 0.027	1.01 ± 0.057
UniProt Q8N5Z0 and related entries	1.15 ± 0.28	1.06 ± 0.2	1.02 ± 0.076	0.978 ± 0.14	0.971 ± 0.11	1.02 ± 0.098
UniProt Q8NBU5	1.02 ± 0.059	0.981 ± 0.029	0.939 ± 0.047	0.983 ± 0.095	0.964 ± 0.031	0.965 ± 0.064
UniProt Q8N2Z9	0.922 ± 0.11	0.865 ± 0.2	0.97 ± 0.09	0.975 ± 0.09	0.933 ± 0.13	0.883 ± 0.16
RNF214 (UniProt Q8ND24)	0.952 ± 0.036	0.952 ± 0.015	0.953 ± 0.011	0.97 ± 0.017	0.931 ± 0.01	0.926 ± 0.02
UniProt Q8NEZ2 and related entries	0.952 ± 0.015	0.966 ± 0.034	0.94 ± 0.043	0.9798 ± 0.0046	0.935 ± 0.017	0.896 ± 0.085
UBAC2 (UniProt Q8NBM4)	0.999 ± 0.057	0.971 ± 0.022	0.989 ± 0.021	0.972 ± 0.037	1.01 ± 0.019	1.01 ± 0.022
CEP76 (UniProt Q8TAP6)	1 ± 0.064	1.01 ± 0.048	1.06 ± 0.03	1 ± 0.057	1.03 ± 0.027	1.04 ± 0.046
UniProt Q8TAP9	0.818 ± 0.11	0.894 ± 0.066	0.891 ± 0.11	0.884 ± 0.16	0.901 ± 0.14	0.895 ± 0.15
UniProt Q8IXW5 and related entries	0.967 ± 0.032	0.959 ± 0.011	0.975 ± 0.052	0.951 ± 0.033	0.976 ± 0.056	0.992 ± 0.034

Target	NP40-soluble protein abundance (concentration: 1mM)	NP40-soluble protein abundance (concentration: 2mM)	NP40-soluble protein abundance (concentration: 4mM)	NP40-soluble protein abundance (concentration: 6mM)	NP40-soluble protein abundance (concentration: 8mM)	NP40-soluble protein abundance (concentration: 10mM)
PLA2G15 (UniProt Q8NCC3)	0.914 ± 0.05	0.96 ± 0.042	0.962 ± 0.027	0.966 ± 0.036	0.901 ± 0.042	0.93 ± 0.078
NUDCD3 (UniProt Q8IVD9)	0.946 ± 0.017	0.9432 ± 0.0054	0.921 ± 0.011	0.932 ± 0.016	0.909 ± 0.03	0.913 ± 0.039
ASCC3 (UniProt Q8N3C0)	0.987 ± 0.043	0.978 ± 0.032	1.05 ± 0.048	1.07 ± 0.053	1.17 ± 0.018	1.32 ± 0.04
ANKRD44 (UniProt Q8N8A2)	0.985 ± 0.086	0.952 ± 0.029	0.973 ± 0.056	0.965 ± 0.046	1 ± 0.07	0.982 ± 0.043
PPTC7 (UniProt Q8NI37)	0.907 ± 0.14	0.93 ± 0.1	0.934 ± 0.12	0.909 ± 0.1	0.997 ± 0.063	0.889 ± 0.15
DHX40 (UniProt Q8IX18)	1.04 ± 0.053	1.06 ± 0.018	1.06 ± 0.012	1.03 ± 0.033	1.044 ± 0.0053	1.02 ± 0.025
UniProt Q8IX12 and related entries	0.982 ± 0.05	0.978 ± 0.048	1.05 ± 0.062	1.11 ± 0.054	1.15 ± 0.044	1.18 ± 0.05
UBR1 (UniProt Q8IWV7)	1.09 ± 0.081	1.05 ± 0.11	1.07 ± 0.099	0.985 ± 0.041	1.04 ± 0.062	0.995 ± 0.031
PELP1 (UniProt Q8IZL8)	1.03 ± 0.11	0.975 ± 0.027	1.07 ± 0.079	1.02 ± 0.069	0.998 ± 0.04	1.06 ± 0.038
ARFGAP2 (UniProt Q8N6H7)	0.9493 ± 0.006	0.946 ± 0.014	0.926 ± 0.012	0.975 ± 0.014	0.91 ± 0.037	0.932 ± 0.012
LRRC8A (UniProt Q8IWT6)	0.973 ± 0.026	0.961 ± 0.026	1.05 ± 0.074	1.03 ± 0.09	1.08 ± 0.013	1.1 ± 0.077
UniProt Q8N4V1 and related entries	0.917 ± 0.16	0.851 ± 0.17	0.847 ± 0.2	0.856 ± 0.2	0.869 ± 0.19	0.738 ± 0.15
UniProt Q8N9V3 and related entries	0.989 ± 0.018	0.995 ± 0.02	0.997 ± 0.072	0.981 ± 0.032	0.991 ± 0.036	0.989 ± 0.054
CCDC117 (UniProt Q8IWD4)	0.961 ± 0.037	0.952 ± 0.034	0.936 ± 0.04	0.965 ± 0.021	0.9239 ± 0.0055	0.908 ± 0.029
UniProt Q8TB61 and related entries	0.958 ± 0.032	0.96 ± 0.031	1.01 ± 0.013	0.917 ± 0.026	1 ± 0.015	0.995 ± 0.072
UniProt Q8IXB1 and related entries	1.02 ± 0.12	0.968 ± 0.082	0.983 ± 0.048	0.951 ± 0.077	1.04 ± 0.083	1.01 ± 0.072
UniProt Q8NCR0 and related entries	1.1 ± 0.038	1.09 ± 0.06	1.105 ± 0.0034	1.06 ± 0.13	1.11 ± 0.07	1.08 ± 0.095
UniProt Q8TAC1 and related entries	1.03 ± 0.031	1.12 ± 0.049	1.07 ± 0.08	1.12 ± 0.076	1.04 ± 0.034	1.09 ± 0.038
UniProt Q8IVT5 and related entries	1.02 ± 0.12	1.08 ± 0.04	1.13 ± 0.059	1.13 ± 0.1	1.11 ± 0.028	1.08 ± 0.054
UniProt Q8NC51 and related entries	1.03 ± 0.078	1.04 ± 0.06	1.07 ± 0.055	1.21 ± 0.089	1.16 ± 0.029	1.26 ± 0.051
TMEM199 (UniProt Q8N511)	0.85 ± 0.064	0.881 ± 0.03	0.939 ± 0.042	0.894 ± 0.044	0.904 ± 0.023	0.946 ± 0.036
UniProt Q8IZH2 and related entries	1.05 ± 0.046	1.04 ± 0.03	1.07 ± 0.052	1.082 ± 0.0035	1.12 ± 0.049	1.106 ± 0.011
UniProt Q8IZM8	0.978 ± 0.048	1.01 ± 0.015	0.987 ± 0.023	1.03 ± 0.058	0.963 ± 0.029	1.01 ± 0.038
UniProt Q8IVS2	1.01 ± 0.068	1.06 ± 0.075	1.08 ± 0.026	1.06 ± 0.055	1.08 ± 0.089	1.09 ± 0.09
UniProt Q8IY63 and related entries	0.979 ± 0.054	1.01 ± 0.06	1.06 ± 0.069	1.09 ± 0.049	1.05 ± 0.024	1.07 ± 0.15
UniProt Q8IZE3-2	1 ± 0.019	0.951 ± 0.011	1.03 ± 0.069	1.01 ± 0.14	1.09 ± 0.13	0.989 ± 0.041

Shown as comma-separated lines: part of the list above
Target,NP40-soluble protein abundance (concentration: 1mM),NP40-soluble protein abundance (concentration: 2mM),NP40-soluble protein abundance (concentration: 4mM),NP40-soluble protein abundance (concentration: 6mM),NP40-soluble protein abundance (concentration: 8mM),NP40-soluble protein abundance (concentration: 10mM)
UBR1 (UniProt Q8IWV7),1.09 ± 0.081,1.05 ± 0.11,1.07 ± 0.099,0.985 ± 0.041,1.04 ± 0.062,0.995 ± 0.031
PELP1 (UniProt Q8IZL8),1.03 ± 0.11,0.975 ± 0.027,1.07 ± 0.079,1.02 ± 0.069,0.998 ± 0.04,1.06 ± 0.038
ARFGAP2 (UniProt Q8N6H7),0.9493 ± 0.006,0.946 ± 0.014,0.926 ± 0.012,0.975 ± 0.014,0.91 ± 0.037,0.932 ± 0.012
LRRC8A (UniProt Q8IWT6),0.973 ± 0.026,0.961 ± 0.026,1.05 ± 0.074,1.03 ± 0.09,1.08 ± 0.013,1.1 ± 0.077
UniProt Q8N4V1 and related entries,0.917 ± 0.16,0.851 ± 0.17,0.847 ± 0.2,0.856 ± 0.2,0.869 ± 0.19,0.738 ± 0.15
UniProt Q8N9V3 and related entries,0.989 ± 0.018,0.995 ± 0.02,0.997 ± 0.072,0.981 ± 0.032,0.991 ± 0.036,0.989 ± 0.054
CCDC117 (UniProt Q8IWD4),0.961 ± 0.037,0.952 ± 0.034,0.936 ± 0.04,0.965 ± 0.021,0.9239 ± 0.0055,0.908 ± 0.029
UniProt Q8TB61 and related entries,0.958 ± 0.032,0.96 ± 0.031,1.01 ± 0.013,0.917 ± 0.026,1 ± 0.015,0.995 ± 0.072
UniProt Q8IXB1 and related entries,1.02 ± 0.12,0.968 ± 0.082,0.983 ± 0.048,0.951 ± 0.077,1.04 ± 0.083,1.01 ± 0.072
UniProt Q8NCR0 and related entries,1.1 ± 0.038,1.09 ± 0.06,1.105 ± 0.0034,1.06 ± 0.13,1.11 ± 0.07,1.08 ± 0.095
